{"sequences": {"note": "Sequences of proteins named here, by UniProt entry; tags and fusion partners are left off. Residues count along the entry.", "UniProt Q9NZQ7, 19-290": "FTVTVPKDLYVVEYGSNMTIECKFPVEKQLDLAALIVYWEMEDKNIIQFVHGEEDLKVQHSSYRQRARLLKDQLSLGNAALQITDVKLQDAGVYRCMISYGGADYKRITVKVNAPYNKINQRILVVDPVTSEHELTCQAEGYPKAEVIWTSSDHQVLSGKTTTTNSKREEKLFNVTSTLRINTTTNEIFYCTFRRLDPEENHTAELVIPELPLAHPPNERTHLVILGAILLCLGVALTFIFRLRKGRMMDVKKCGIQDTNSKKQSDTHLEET"}, "source": "paper PMC11936014", "biological_target": "PD-L1 (UniProt Q9NZQ7)", "assay": "competition with a labelled probe", "details": "EJ cells preincubated with 2.5 uM unlabelled aptamer, prevents PD-L1-GEMs binding (flow cytometry); Cell binding buffer with 0.1 mg/mL tRNA, 1 mg/mL BSA, 10% FBS; on ice 1 h; PBS washes; pH not stated; protein on the cell surface; label: none (unlabelled competitor); single-stranded DNA", "note": "The exact form of at least one protein or probe is not confirmed. Where cells or extracts were used, other partners may take part."}
{"sequence": "TTTACAGGTTCTGGGGGGTGGGTGGGGAACCTGTTTT [PD-L1 aptamer]", "values": [{"measurement": "binding result", "value": "binds"}]}
